Laboratory results: patent US20250171496A1, “FUSION PEPTIDE FOR REGULATING ACTIVATION OF MAM AND USE THEREOF” (UIF (University Industry Foundation), Yonsei University, priority 2023, published 2025)
Entries after “also recorded” stand apart in the source; their conditions may differ. At least one peptide structure holds a part that was inferred or is arguable (an end, a ring closure or a residue). Where no end group is shown, it is not given here.

Assays:
ApoE knockout mice = assay: Atherosclerosis animal model (high-cholesterol diet, ApoE knockout mice); assay type: in vivo; details: 50 mg/kg intraperitoneally every 2 days for 8 weeks, vs vehicle
Description: Animal experiment was performed in accordance with the guidelines approved by the Institutional Animal Care and Use Committee of Yonsei University (IACUC-A-202404-1847-02). 6-week-old male ApoE knockout B6.KOR/StmSlc-Apoeshl mice were housed in a specific pathogen-free system with a 12-hour light-dark cycle with free access to food and water, and randomly divided into three groups (control, positive control, and test groups). Then, the sample was injected intraperitoneally to the control group (vehicle), the positive control group (CTS (cryptotanshinone), 20 mg/kg), and the test group (peptide, 50 mg/kg) once every two days for 8 weeks while feeding the mice with a high-cholesterol diet until the end of the experiment (for 8 weeks).
After sacrificing the mice, PBS perfusion was performed through the left ventricle, and the heart, artery, and blood were obtained. The artery was cut along the bifurcation of the iliac artery, spread out, fixed with pins, and fixed in 10% formaldehyde for 16 hours. After staining with Oil-Red-O for 16 hours, the samples were washed with PBS and images were obtained using a microscope (NS-6T, China).
The fusion peptide 4 (50 mg/kg) was injected intraperitoneally every 2 days for 8 weeks into an animal model of atherosclerosis (high-cholesterol diet, ApoE knockout mice).

Hela cells [1] = assay: Measurement of Ca2+ movement in ER-mitochondria (Rhod-2, histamine-induced); assay type: cell-based; details: peptide 20 μM 1 hour, 200 μM histamine, Rhod-2, vs control (DW) and fusion peptides 1 to 3
Hela cells [2] = assay: SPLICS (ER-mitochondria split-GFP) proximity assay; assay type: cell-based; details: Hela cells transfected with SPLICS vector, 10 mM EtOH, peptide 20 μM, 1 hour, vs control (DW)
Excerpt: To this end, MAM regulatory activity was verified using the SPLICS (ER-mitochondria split-GFP) system, which allows observation of the proximity between intracellular organelles through fluorescence emission. The SPLICS system is a system that can efficiently image the proximity of intracellular organelles based on the principle that split-GFP fluorescence is emitted when two organelles are within approximately 10 to 40 nm of each other. As the two organelles approach, complementation of GFP occurs, resulting in fluorescence at the junction. It is to be noted that increased contact between ER and mitochondria may lead to cellular stress and dysfunction.
First, to observe the change in the distance between the ER and mitochondria due to treatment with the fusion peptides, Hela cells were transfected with the SPLICS vector. Afterwards, the HeLa cells were treated with the fusion peptides and the area (%) of GFP fluorescence relative to the total area per cell was measured. […] That is to say, it was observed from the decrease in green fluorescence in the groups treated with the fusion peptides of the present disclosure that the two organelles were moving apart from each other.

LC3B = assay: Immunoblot assay of LC3B conversion (autophagic flux) under oxLDL; assay type: cell-based, human; details: HUVEC cells, 50 μg/mL oxLDL plus 200 μM peptide
[3] = system: IP3R in the endoplasmic reticulum and VDAC1 in the mitochondria; assay: PLA (proximity ligation assay); assay type: cell-based; details: Hela cells, 20 μM, 1 hour, vs control (DW)
TFEB = assay: ICC assay of TFEB nuclear translocation; assay type: cell-based; details: Hela cells, 20 μM and 50 μM, 0 to 12 hours
HUVEC cells = assay: LysoTracker fluorescence staining (lysosomal activity); assay type: cell-based, human; details: 100 μM, 12 or 24 hours

Sequence: YARVRRRGPRRRSIYYLGIGPT [fusion peptide 4, YARVRRRGPRR-RSIYYLGIGPT]
- formation of atherosclerotic plaques in the aorta (Oil Red O) (ApoE knockout mice): significant decrease in the formation of atherosclerotic plaques in the aorta
- serum total cholesterol level (ApoE knockout mice): decrease
- serum triglyceride (TG) level (ApoE knockout mice): decrease
- mitochondrial calcium level (Hela cells [1]): significantly reduced mitochondrial calcium level; also recorded: Mitochondrial calcium influx was reduced
- GFP fluorescence signal (area of GFP fluorescence relative to the total area per cell), SPLICS (Hela cells [2]): significant decrease in fluorescence signals
- conversion of LC3B I to LC3B II (LC3B): conversion of LC3B I to LC3B II was increased; also recorded: restored
- number of PLA dots (fluorescence) [3]: number of PLA dots decreased significantly; also recorded: Fluorescence was attenuated
- TFEB nuclear translocation (TFEB): translocation of TFEB to the nucleus was observed; also recorded: TFEB nuclear translocation occurred over time
- lysosomal activity (Lysotracker) (HUVEC cells): lysosomal activity was found to increase; also recorded: Lysosomal activity was increased
